Reference: the supplement of paper PMC8728848
Some of the results follow.

Assays:
Test in all cases: glycan array binding signal (z-score within array); higher = stronger binding
Conditions in all cases: glycan notation: IUPAC condensed, linker removed
[1] = biological target: Gal(b1-4)GlcNAc(a1-6)Gal(b1-4)GlcNAc
Method in brief: (§1)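 Columns mapping to the same glycan were averaged after glycan names were converted to IUPAC-condensed notation. The data come from 3228 arrays in the Consortium for Functional Glycomics database, limited to those with an available protein sequence. Binding is reported as a within-array Z-score averaged across arrays of one protein sequence and across linkers.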

[2] = biological target: Gal(b1-4)GlcNAc(b1-2)Man(a1-3)Man(b1-4)GlcNAc(b1-4)GlcNAc
Method in brief: as §1

[3] = biological target: Gal(b1-4)GlcNAc(b1-2)Man(a1-3)[Gal(b1-4)GlcNAc(b1-2)Man(a1-6)]Man(b1-4)GlcNAc(b1-4)GlcNAc
Method in brief: as §1

[4] = biological target: Gal(b1-4)GlcNAc(b1-2)Man(a1-3)[Gal(b1-4)GlcNAc(b1-2)Man(a1-6)]Man(b1-4)GlcNAc(b1-4)[Fuc(a1-6)]GlcNAc
Method in brief: as §1

[5] = biological target: Gal(b1-4)GlcNAc(b1-2)Man(a1-3)[Man(a1-6)]Man(b1-4)GlcNAc(b1-4)GlcNAc
Method in brief: as §1

[6] = biological target: Gal(b1-4)GlcNAc(b1-2)Man(a1-6)Man(b1-4)GlcNAc(b1-4)GlcNAc
Method in brief: as §1

[7] = biological target: Gal(b1-4)GlcNAc(b1-2)Man(a1-6)[Man(a1-3)]Man(b1-4)GlcNAc(b1-4)GlcNAc
Method in brief: as §1

[8] = biological target: Gal(b1-4)GlcNAc(b1-2)[Gal(b1-4)GlcNAc(b1-4)]Man(a1-3)[Gal(b1-4)GlcNAc(b1-2)Man(a1-6)]Man(b1-4)GlcNAc(b1-4)GlcNAc
Method in brief: as §1

[9] = biological target: Gal(b1-4)GlcNAc(b1-3)Gal(b1-3)GlcNAc
Method in brief: as §1

[10] = biological target: Gal(b1-4)GlcNAc(b1-3)Gal(b1-4)Glc
Method in brief: as §1

[11] = biological target: Gal(b1-4)GlcNAc(b1-3)Gal(b1-4)GlcNAc
Method in brief: as §1

[12] = biological target: Gal(b1-4)GlcNAc(b1-3)Gal(b1-4)GlcNAc(b1-3)Gal(b1-4)GlcNAc
Method in brief: as §1

[13] = biological target: Gal(b1-4)GlcNAc(b1-3)Gal(b1-4)[Fuc(a1-3)]GlcNAc(b1-3)Gal(b1-4)[Fuc(a1-3)]GlcNAc
Method in brief: as §1

[14] = biological target: Gal(b1-4)GlcNAc(b1-3)GalNAc
Method in brief: as §1

[15] = biological target: Gal(b1-4)GlcNAc(b1-3)[Gal(b1-4)GlcNAc(b1-6)]Gal(b1-4)GlcNAc
Method in brief: as §1

[16] = biological target: Gal(b1-4)GlcNAc(b1-3)[GlcNAc(b1-6)]Gal(b1-4)GlcNAc
Method in brief: as §1

[17] = biological target: Gal(b1-4)GlcNAc(b1-6)Gal(b1-4)GlcNAc
Method in brief: as §1

[18] = biological target: Gal(b1-4)GlcNAc(b1-6)Gal(b1-4)GlcNAc(b1-6)GalNAc
Method in brief: as §1

[19] = biological target: Gal(b1-4)GlcNAc(b1-6)GalNAc
Method in brief: as §1

[20] = biological target: Gal(b1-4)GlcNAc(b1-6)[Gal(b1-3)]GalNAc
Method in brief: as §1

Gal3S(b1-3)GalNAc = biological target: Gal3S(b1-3)GalNAc
Method in brief: as §1

Gal3S(b1-3)GlcNAc = biological target: Gal3S(b1-3)GlcNAc
Method in brief: as §1

[21] = biological target: Gal3S(b1-3)[Fuc(a1-4)]GlcNAc
Method in brief: as §1

Gal3S(b1-4)Glc = biological target: Gal3S(b1-4)Glc
Method in brief: as §1

Gal3S(b1-4)Glc6S = biological target: Gal3S(b1-4)Glc6S
Method in brief: as §1

Gal3S(b1-4)GlcNAc = biological target: Gal3S(b1-4)GlcNAc
Method in brief: as §1

Gal3S(b1-4)GlcNAc6S = biological target: Gal3S(b1-4)GlcNAc6S
Method in brief: as §1

[22] = biological target: Gal3S(b1-4)[Fuc(a1-3)]Glc
Method in brief: as §1

Gal3S4S(b1-4)GlcNAc = biological target: Gal3S4S(b1-4)GlcNAc
Method in brief: as §1

Gal3S6S(b1-4)GlcNAc = biological target: Gal3S6S(b1-4)GlcNAc
Method in brief: as §1

Gal3S6S(b1-4)GlcNAc6S = biological target: Gal3S6S(b1-4)GlcNAc6S
Method in brief: as §1

Gal4S(b1-4)GlcNAc = biological target: Gal4S(b1-4)GlcNAc
Method in brief: as §1

Gal4S6S(b1-4)GlcNAc = biological target: Gal4S6S(b1-4)GlcNAc
Method in brief: as §1

Gal6S(b1-4)Glc = biological target: Gal6S(b1-4)Glc
Method in brief: as §1

Gal6S(b1-4)Glc6S = biological target: Gal6S(b1-4)Glc6S
Method in brief: as §1

Gal6S(b1-4)GlcNAc = biological target: Gal6S(b1-4)GlcNAc
Method in brief: as §1

Gal6S(b1-4)GlcNAc6S = biological target: Gal6S(b1-4)GlcNAc6S
Method in brief: as §1

B1: HHL-2 (Homo sapiens), P07307 (protein)
chain: MAKDFQDIQQLSSEENDHPFHQGEGPGTRRLNPRRGNPFLKGPPPAQPLAQRLCSMVCFSLLALSFNILLLVVICVTGSQSEGHRGAQLQAELRSLKEAFSNFSSSTLTEVQAISTHGGSVGDKITSLGAKLEKQQQDLKADHDALLFHLKHFPVDLRFVACQMELLHSNGSQRTCCPVNWVEHQGSCYWFSHSGKAWAEAEKYCQLENAHLVVINSWEEQKFIVQHTNPFNTWIGLTDSDGSWKWVDGTDYRHNYKNWAVTQPDNWHGHELGGSEDCVEVQPDGRWNDDFCLQVYRWVCEKRRNATGEVA
glycan array binding signal (z-score) [1]: 0.183
glycan array binding signal (z-score) [2]: -0.675
glycan array binding signal (z-score) [3]: -0.276
glycan array binding signal (z-score) [4]: -0.47
glycan array binding signal (z-score) [5]: -0.542
glycan array binding signal (z-score) [6]: -0.522
glycan array binding signal (z-score) [7]: -0.243
glycan array binding signal (z-score) [8]: -0.447
glycan array binding signal (z-score) [9]: -0.728
glycan array binding signal (z-score) [10]: -0.211
glycan array binding signal (z-score) [11]: -0.474
glycan array binding signal (z-score) [12]: -0.643
glycan array binding signal (z-score) [13]: -0.686
glycan array binding signal (z-score) [14]: -0.29
glycan array binding signal (z-score) [15]: -0.55
glycan array binding signal (z-score) [16]: -0.539
glycan array binding signal (z-score) [17]: 0.683
glycan array binding signal (z-score) [18]: -0.077
glycan array binding signal (z-score) [19]: -0.588
glycan array binding signal (z-score) [20]: -0.583
glycan array binding signal (z-score) (Gal3S(b1-3)GalNAc): 0.269
glycan array binding signal (z-score) (Gal3S(b1-3)GlcNAc): 2.04
glycan array binding signal (z-score) [21]: 2.62
glycan array binding signal (z-score) (Gal3S(b1-4)Glc): -0.798
glycan array binding signal (z-score) (Gal3S(b1-4)Glc6S): 1.08
glycan array binding signal (z-score) (Gal3S(b1-4)GlcNAc): -0.744
glycan array binding signal (z-score) (Gal3S(b1-4)GlcNAc6S): 0.161
glycan array binding signal (z-score) [22]: 0.929
glycan array binding signal (z-score) (Gal3S4S(b1-4)GlcNAc): 1.94
glycan array binding signal (z-score) (Gal3S6S(b1-4)GlcNAc): -0.306
glycan array binding signal (z-score) (Gal3S6S(b1-4)GlcNAc6S): 1
glycan array binding signal (z-score) (Gal4S(b1-4)GlcNAc): 0.361
glycan array binding signal (z-score) (Gal4S6S(b1-4)GlcNAc): 0.284
glycan array binding signal (z-score) (Gal6S(b1-4)Glc): 1.35
glycan array binding signal (z-score) (Gal6S(b1-4)Glc6S): 1.64
glycan array binding signal (z-score) (Gal6S(b1-4)GlcNAc): -0.519
glycan array binding signal (z-score) (Gal6S(b1-4)GlcNAc6S): 3.54
